Measurements published in paper PMC3660565.
These are yes or no findings as the source states them, for the method shown. In cells and extracts the contact can be indirect. A result given as binding can be weak or reduced; the word gives no strength.

Chains of the proteins cited; added tags and fusions are not shown. Lines headed by an entry give the natural chain unless they say otherwise; changes in a name come on top.
UniProt Q15172: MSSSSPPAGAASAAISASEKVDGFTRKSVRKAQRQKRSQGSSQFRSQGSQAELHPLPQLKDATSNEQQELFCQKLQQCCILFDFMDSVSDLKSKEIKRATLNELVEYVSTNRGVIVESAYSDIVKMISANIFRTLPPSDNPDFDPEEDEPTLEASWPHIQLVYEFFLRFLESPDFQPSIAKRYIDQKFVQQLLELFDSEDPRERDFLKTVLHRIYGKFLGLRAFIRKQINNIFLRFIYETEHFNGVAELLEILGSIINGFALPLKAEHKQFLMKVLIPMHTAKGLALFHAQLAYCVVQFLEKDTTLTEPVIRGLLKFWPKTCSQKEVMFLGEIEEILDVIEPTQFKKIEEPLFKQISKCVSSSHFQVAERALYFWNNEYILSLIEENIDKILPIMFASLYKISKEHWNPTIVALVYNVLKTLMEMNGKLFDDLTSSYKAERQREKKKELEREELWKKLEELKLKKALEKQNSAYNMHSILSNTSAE
UniProt Q15173: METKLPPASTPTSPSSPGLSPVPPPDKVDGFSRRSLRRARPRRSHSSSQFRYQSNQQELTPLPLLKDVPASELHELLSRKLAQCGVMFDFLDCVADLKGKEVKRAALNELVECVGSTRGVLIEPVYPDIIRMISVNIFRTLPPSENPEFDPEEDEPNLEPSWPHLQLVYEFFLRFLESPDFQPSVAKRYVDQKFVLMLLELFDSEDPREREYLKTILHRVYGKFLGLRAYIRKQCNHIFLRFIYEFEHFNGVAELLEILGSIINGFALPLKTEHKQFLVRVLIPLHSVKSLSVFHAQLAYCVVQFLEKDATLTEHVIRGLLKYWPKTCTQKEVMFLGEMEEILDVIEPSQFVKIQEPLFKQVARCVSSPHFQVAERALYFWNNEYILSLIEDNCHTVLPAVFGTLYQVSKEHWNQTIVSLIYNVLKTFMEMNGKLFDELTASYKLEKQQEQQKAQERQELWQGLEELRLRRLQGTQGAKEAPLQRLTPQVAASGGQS
UniProt P67775: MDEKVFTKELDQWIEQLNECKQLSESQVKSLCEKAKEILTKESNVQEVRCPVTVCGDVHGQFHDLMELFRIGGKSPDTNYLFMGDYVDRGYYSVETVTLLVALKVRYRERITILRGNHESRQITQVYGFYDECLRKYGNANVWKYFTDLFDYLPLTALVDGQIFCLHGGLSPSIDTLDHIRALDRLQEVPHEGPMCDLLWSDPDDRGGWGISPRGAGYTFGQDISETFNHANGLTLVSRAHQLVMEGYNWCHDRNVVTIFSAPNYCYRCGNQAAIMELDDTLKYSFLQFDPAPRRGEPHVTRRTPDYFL

Tests used:
[1] = target: HA-tagged B56α1 (PP2A regulatory subunit B56α1) (UniProt Q15172); assay: co-IP; HA-B56 immunoprecipitated with anti-HA antibodies and protein G Sepharose from lysates of permanently B56-transfected Calu1 cells (50 mM Tris-HCl pH 7.4, 150 mM NaCl, 1% NP-40, 0.25% sodium deoxycholate); co-precipitated endogenous proteins detected by western blotting; 2x10^6 cells (6x10^6 cells for B56β1 with C subunit); in Figure 7A cells stimulated with EGF and loaded on collagen, 0 to 60 min
[2] = target: HA-tagged B56β1 (PP2A regulatory subunit B56β1) (UniProt Q15173); assay: as above

C catalytic subunit of PP2A (from UniProt P67775) (enzyme)
binding [1]: binds | binding [2]: binds
